# Measurements: PubChem BioAssay AID1347075 (National Center for Advancing Translational Sciences (NCATS), 2019)
# The whole screen tested about 400,000 compounds, of which about 5,500 (1.4%) were called active. Inconclusive means that the source gave no clear call. Such entries were picked first, then a sample of the others. The call rests on the fitted dose curve; in most records, active means well fitted cell-killing curve with a large enough effect; inconclusive means small, poorly fitted or top-dose-only effect, or effect the other way; inactive means flat fitted curve, though single readings scatter. Where the call is inconclusive, the potency comes from a doubtful curve fit.
# Test: qHTS assay for MDR1-selective chemotherapeutics: Primary screen using the parental adenocarcinoma cell KB-3-1; further: nearly all actives have a fitted effect of over 60% in size
# Conditions: KB-3-1 viability, CellTiter-Glo ATP luminescence, 72 h; activity change, negative = cytotoxic: at 46.1 µM (top of the series)
# Method in brief: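 Cells are dispensed, compounds pinned in, plates held at 37 °C for 72 h, then CellTiter-Glo is added and luminescence read after 10 minutes. Cell line: parental KB-3-1 in phenol-red-free DMEM, 10% FBS.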
# On the % scale 0 is the no-effect control and ±100 the full control effect; potency means the concentration at half of the fitted maximal effect.
Structure (SMILES),Potency,"activity change, negative = cytotoxic"
COc1ccc(C(C)(O)c2nc(-c3cccc(C(C)C)c3)cs2)cc1 (stereo not drawn),"inconclusive: 18.4 µM [cytotoxic, single point]",
Cc1ccc(NC(=O)Cn2c(=O)n(CCCS(=O)(=O)C3CCCCC3)c(=O)c3ccccc32)cc1F,inactive,
O=C(N/N=C/c1cccc(F)c1)c1c(O)c2ccccc2[nH]c1=O,"inconclusive: 7.31 µM [cytotoxic, partial curve, poor fit]",
CCOC(=O)Cc1c(C)nc2c(-c3ccccc3)c(-c3ccccc3)[nH]n2c1=O,"inconclusive: 29.1 µM [cytotoxic, single point]",
Cc1ccc(N2Cc3ccccc3C2=O)cc1,"inconclusive: 14.6 µM [cytotoxic, partial curve]",
CC(C)c1noc2ncc(C(=O)c3cc(Cl)cc(Cl)c3O)cc12,"inconclusive: 20.6 µM [cytotoxic, single point]",
O=C(NCc1ccco1)c1c2c(nc3ccccc13)CCC2,"inconclusive: 29.1 µM [cytotoxic, single point]",
Cc1ccc(Cl)cc1N1CCN(C(=O)CCCn2c(=O)c3cccn3c3cccnc32)CC1,inactive,
CCOc1ccc(S(=O)(=O)N(CC(=O)NCc2ccncc2)c2ccc(C)cc2)cc1,"inconclusive: 20.6 µM [cytotoxic, single point]",
O=C(NC1CCCCC1)C(c1cccnc1)N(C(=O)CCl)c1ccccc1Cl (stereo not drawn),active: 10.3 µM,
CCC/C=C(\CCC)C(NC(=O)Cc1ccccc1)c1ccc(C(=O)OC)cc1 (stereo not drawn),"inconclusive: 18.4 µM [cytotoxic, single point]",
S=C(NCCNC(=S)Nc1ccccc1)Nc1ccccc1,inactive,
Cc1nc2cc(-c3cccc(F)c3)nn2c(C)c1CCC(=O)NC(C)c1ccc2c(c1)OCCO2 (stereo not drawn),"inconclusive: 20.6 µM [cytotoxic, partial curve, poor fit]",
Cc1cc(C)cc(-n2c3ccc(NC(=O)Cc4cccc5ccccc45)cc3c(=O)n2C)c1,active: 5.17 µM,
CC1(C)CC(N2CCN(C(c3ccccc3)c3ccccc3)CC2)=CC(=[N+]2CCCCC2)C1,active: 0.517 µM,
O=C(NC(Cc1ccccc1)C(=O)O)c1ccc(S(=O)(=O)N2CCCC2)cc1 (stereo not drawn),,inconclusive: -0.492%
CCC1CN(S(=O)(=O)c2ccc3c(c2)NC(=O)CC(=O)N3)c2cc(Cl)ccc2O1 (stereo not drawn),"inconclusive: 18.4 µM [cytotoxic, single point]",
CCn1c(SCC(=O)N2CCN(c3ccccc3)CC2)nc2c([nH]c3ccccc32)c1=O,"inconclusive: 16.4 µM [cytotoxic, partial curve, poor fit]",
O=C(O)c1ccc(C=C(c2nc3ccccc3s2)c2nc3ccccc3s2)cc1,"inconclusive: 18.4 µM [cytotoxic, single point]",
Cc1c(C(=O)NCC2CCCO2)oc2ccc(S(=O)(=O)N3CC(C)CC(C)C3)cc12 (stereo not drawn),"inconclusive: 13 µM [cytotoxic, single point]",
COc1ccc(-c2nc3c(C#N)c[nH]n3c2NC2CCCC2)cc1,inactive,
CN(C)S(=O)(=O)c1cccc(NC(=S)N/N=C/c2cc(Br)ccc2O)c1,"inconclusive: 13 µM [cytotoxic, partial curve, poor fit]",
CCOc1ccc(CNCc2c(C(=O)O)n(Cc3ccc(OC)cc3)c3ccccc23)cc1,"inconclusive: 32.6 µM [cytotoxic, single point]",

Structure (SMILES),Potency,"activity change, negative = cytotoxic"
CCCCNCCOCCOc1ccc(F)cc1,inactive,
O=C(Nc1ccn(Cc2ccccc2)n1)c1cccc(F)c1,"inconclusive: 29.1 µM [cytotoxic, single point]",
COc1ccc(-c2nn(-c3ccccc3)cc2/C=C(/C#N)C(N)=O)cc1[N+](=O)[O-],"inconclusive: 18.4 µM [rising, partial curve]",
CCCCCCN1CCN(C2CN(Cc3cn(Cc4cc(C)cc(C)c4)nn3)S(=O)(=O)C2)CC1 (stereo not drawn),"inconclusive: 20.6 µM [cytotoxic, single point]",
Cc1cnn(CCC(=O)NNC(=S)NCC(C)C)c1,inactive,
O=C(CCC1CCCC1)Nc1ccc(OCC(=O)N2CCOCC2)cc1,"inconclusive: 20.6 µM [rising, partial curve]",
COc1cccc(-n2c(-c3ccco3)nc3c(cnn3-c3ccc(Cl)cc3)c2=O)c1,"inconclusive: 18.4 µM [cytotoxic, single point]",
COc1cccc(NC(=O)COc2ccc(C(=S)N3CCN(C)CC3)cc2OC)c1,"inconclusive: 29.1 µM [cytotoxic, partial curve, poor fit]",
CC(C)CCNC(=O)CNC(=O)c1cccs1,"inconclusive: 20.6 µM [cytotoxic, single point]",
O=C(c1ccc(C(F)(F)F)cc1)N1CCC(=O)N([C@H](COCc2ccc(C(F)(F)F)cc2)Cc2ccccc2)CC1,inactive,
Cc1ccc(S(=O)(=O)N2CCN(C(=O)C3CCN(C(=O)c4ccc(F)cc4)CC3)CC2)c(C)c1,"inconclusive: 29.1 µM [cytotoxic, single point]",
COc1ccc(/C=N/NC(=O)c2[nH]c3ccc(Br)cc3c2-c2ccccc2)cc1,active: 0.82 µM,
Cc1ccc(S(=O)(=O)CCC(=O)OCC(=O)Nc2cccc(S(=O)(=O)N3CCCCC3)c2)cc1,inactive,
CCO/C=N/Nc1nc(C(F)(F)F)nc2c1cnn2Cc1ccccc1,inactive,
Cc1nc2ccc(C(=O)N(C)Cc3ccccc3)cn2c1N(C)C(=O)CCc1ccccc1,inactive,
CCOC(=O)c1ccc(N2C(=O)c3n[nH]c(-c4cccs4)c3C2c2cccc(OC)c2)cc1 (stereo not drawn),"inconclusive: 25.9 µM [cytotoxic, single point]",
CCC(CC)C(=O)N1CCc2cc(OC)c(OC)cc2C1COc1ccc(C(=O)OC)cc1 (stereo not drawn),"inconclusive: 18.4 µM [cytotoxic, single point]",
Oc1ccc(C[C@H]2CNC(=S)N2CC2CCCN2C[C@H](Cc2ccc(O)cc2)N2C[C@H](Cc3ccc(O)cc3)N(CC3CCCCC3)C2=S)cc1 (stereo partly drawn),"inconclusive: 32.6 µM [cytotoxic, single point]",
C=C(C)C(=O)Nc1cccc(C2=NOC3(C2)C[C@@H](C(N)=O)N(C(=O)/C(C)=C/C)C3)c1 (stereo partly drawn),,inconclusive: 35%
Cc1cccc(NC(=O)CSc2nc3ccccc3nc2N2CCCC2)c1,"inconclusive: 20.6 µM [cytotoxic, single point]",
Cn1c(SCC(=O)c2ccc3c(c2)OCO3)nnc1C1COc2ccccc2O1 (stereo not drawn),inactive,
Cc1cccc(N2CC(C(=O)NCCC3=CCCCC3)CC2=O)c1C (stereo not drawn),inactive,
CSc1ccc(-c2nnn(CC(=O)NCc3ccccc3)n2)cc1,"inconclusive: 20.6 µM [cytotoxic, single point]",

# Looked up above.
# Potency with COc1ccc(/C=N/NC(=O)c2[nH]c3ccc(Br)cc3c2-c2ccccc2)cc1 reads active: 0.82 µM
# Potency with Cc1cnn(CCC(=O)NNC(=S)NCC(C)C)c1 reads inactive
# Potency with COc1cccc(NC(=O)COc2ccc(C(=S)N3CCN(C)CC3)cc2OC)c1 reads inconclusive: 29.1 µM [cytotoxic, partial curve, poor fit]
# Potency with Cc1nc2ccc(C(=O)N(C)Cc3ccccc3)cn2c1N(C)C(=O)CCc1ccccc1 reads inactive
# Potency with CC(C)CCNC(=O)CNC(=O)c1cccs1 reads inconclusive: 20.6 µM [cytotoxic, single point]

# Next part.

Structure (SMILES),Potency,"activity change, negative = cytotoxic"
C(=N\n1cnnc1)/c1ccccc1OCCOc1ccccc1,"inconclusive: 29.1 µM [cytotoxic, single point]",
CC(=O)c1sc(N/N=C\c2c(O)ccc3ccccc23)nc1C,"inconclusive: 14.6 µM [cytotoxic, partial curve, poor fit]",
COc1ccc(-c2csc(C(C#N)=C(O)CSc3nccn3C)n2)cc1OC,"inconclusive: 4.11 µM [rising, partial curve, poor fit]",
CCOc1ccc(/C=N/NC(=O)COc2ccccc2-c2ccccc2)cc1,"inconclusive: 20.6 µM [cytotoxic, single point]",
CC(C)(CC(=O)O)CC(=O)NCc1c(Cl)cccc1Oc1ccccc1,inactive,
COc1ccc(C(=O)NNC(=O)c2cc3ccccc3cc2O)cc1,"inconclusive: 14.6 µM [cytotoxic, partial curve, poor fit]",
O=CN/N=C/c1c(O)ccc2ccccc12,active: 7.31 µM,
COc1cc(NC(=O)NC(C)c2c(-n3cccc3)sc3c2CCN(C)C3)cc(OC)c1 (stereo not drawn),inactive,
COc1cccc(-c2ncn(CCc3ccccc3OC)c2C(C)C)c1,"inconclusive: 29.1 µM [cytotoxic, single point]",
COc1ccc(NC(=O)c2ccc(Br)c(S(=O)(=O)N3CCOCC3)c2)cc1,"inconclusive: 1.03 µM [cytotoxic, full curve]",
Cc1ccc(N(CC(=O)Nc2ccc3c(c2)OCCO3)S(=O)(=O)c2c(C)noc2C)cc1,inactive,
Cc1ccc2cc(CN(C(=O)c3cccs3)c3ccccc3)c(=O)[nH]c2c1,inactive,
CCc1ccc(C2=Nn3c(nnc3-c3cccs3)SC2)cc1,"inconclusive: 23.1 µM [cytotoxic, single point]",
CNC1=C(N(C(C)=O)c2ccc(Br)cc2)C(=O)c2ccccc2C1=O,"inconclusive: 0.731 µM [cytotoxic, full curve, poor fit]",
O=C(/C=C/c1ccccc1)Nc1cccc(C(=O)NCCc2ccccc2)c1,inactive,
O=[N+]([O-])c1cc(CN2CCN(c3cccc(C(F)(F)F)c3)CC2)c2cccnc2c1O,active: 3.66 µM,
O=C(COC(=O)c1ccc[n+]([O-])c1)Nc1cc([N+](=O)[O-])ccc1Cl,inactive,
O=S(=O)(c1cc(C(F)(F)F)ccc1Cl)N1CCN(c2ncnc3ccccc23)CC1,"inconclusive: 29.1 µM [cytotoxic, single point]",
Cc1ccc(C)n1-c1ccc(C(=O)NCc2ccncc2)cc1,,inconclusive: -25.8%
CC1CCN(CCCOc2ccc(Br)cc2Cl)CC1,inactive,
COc1ccc(Cl)cc1NC(=O)CN(C)C(=O)c1ccc(N2CCCCC2)c([N+](=O)[O-])c1,active: 14.6 µM,
Cc1ccc2nc(C3CCCCC3)c(Cc3ccccc3)n2c1,"inconclusive: 29.1 µM [cytotoxic, single point]",
